The list shows only some results of the screen, not a fair sample: it is rich in T/C values a quarter to a half above the control, in often repeated tests (any T/C) and in doses without a T/C. Further doses and runs are listed elsewhere. T/C gives the treated animals as a percentage of the vehicle group. Some doses have a count of surviving animals in place of a T/C: the source files T/C as zero there, which appears to mark a toxic dose or a test without result, not a measured value. Some doses without a T/C left all or most animals alive at the check, yet need not have been tolerated: survival well below the control is almost never listed, so the zero probably covers shortened survival too. Counts of survivors are from the toxicity check (mostly the fifth day) where no day follows; animals may have died later. Schedule codes are those of the source, read here as Q, the interval in days (D) or hours (H), X, the number of doses. Some entries hold several experiments; their values stand side by side, smallest first. Where survival is the endpoint, the PubChem record calls one and a half times the control and up active, and a quarter to a half above the control has no call in these data; cut-offs in other NCI protocols can differ. Marks such as (2×) stand for listed records that agree. Some T/C values are followed by the survivors on the day toxicity was checked, most often the fifth; where none is given, no animal had died by that day.
Tested on: P388 leukemia ip, CD2F1 mice, survival T/C
Test: NCI In Vivo Anticancer Drug Screen. Data for tumor model P388 Leukemia (intraperitoneal) in CD2F1 (CDF1) mice
Settings: T/C endpoint: median survival time, higher T/C = longer survival
[1] = dose: 400.0 mg/kg/injection, schedule: Q04DX002 (ip), vehicle: water
[2] = dose: 200.0 mg/kg/injection, schedule: Q01DX009 (ip), vehicle: saline with Tween-80

O=c1[nH]c(=O)n(C2CC(O)C(CO)O2)cc1F (centres undefined)
T/C (dose: 5.0 mg/kg/injection, schedule: Q01DX010 (ip), vehicle: saline): 136 % of control | T/C (dose: 25.0 mg/kg/injection, schedule: Q04DX002 (ip), vehicle: water): 112, 113, 115, 117, 121, 122, 136 % of control | T/C (dose: 38.9 mg/kg/injection, schedule: Q04DX003 (ip), vehicle: saline): 135 % of control | T/C (dose: 50.0 mg/kg/injection, schedule: Q04DX002 (ip), vehicle: water): 117, 118, 119, 120, 124, 135, 142 % of control | T/C (dose: 51.8 mg/kg/injection, schedule: Q04DX002 (ip), vehicle: saline): 125 % of control | T/C (dose: 64.8 mg/kg/injection, schedule: Q04DX003 (ip), vehicle: saline): 136 % of control | T/C (dose: 86.4 mg/kg/injection, schedule: Q04DX002 (ip), vehicle: saline): 128 % of control | T/C (dose: 100.0 mg/kg/injection, schedule: Q04DX002 (ip), vehicle: water): 115, 122, 125, 131, 133, 144 % of control (2×) | T/C (dose: 108.0 mg/kg/injection, schedule: Q04DX003 (ip), vehicle: saline): 138 % of control | T/C (dose: 110.0 mg/kg/injection, schedule: Q01DX009 (ip), vehicle: saline): 139 % of control | T/C (dose: 144.0 mg/kg/injection, schedule: Q04DX002 (ip), vehicle: saline): 134 % of control | T/C (dose: 180.0 mg/kg/injection, schedule: Q04DX003 (ip), vehicle: saline): 148 % of control | T/C (dose: 200.0 mg/kg/injection, schedule: Q04DX002 (ip), vehicle: water): 130, 134, 140, 158 (2×), 160, 165 % of control | T/C (dose: 400.0 mg/kg/injection, schedule: Q01DX001 (ip), vehicle: saline): 127 % of control | T/C [1]: 101, 136, 159, 163 % of control | survivor count [1]: 5 of 5 and 6 of 6

O=C1c2ccccc2C(=O)N1CCC[P+](c1ccccc1)(c1ccccc1)c1ccccc1
T/C (dose: 3.12 mg/kg/injection, schedule: Q01DX009 (ip), vehicle: saline): 131 % of control | T/C (dose: 6.25 mg/kg/injection, schedule: Q01DX009 (ip), vehicle: saline): 138 % of control | T/C (dose: 12.5 mg/kg/injection, schedule: Q01DX009 (ip), vehicle: saline): 138 % of control | survivor count (dose: 25.0 mg/kg/injection, schedule: Q01DX009 (ip), vehicle: saline): 5 of 6

CC(C)NC(=O)OCc1c(COC(=O)NC(C)C)c(-c2ccc(F)cc2F)n2c1CCC2
T/C (dose: 0.78 mg/kg/injection, schedule: Q01DX009 (ip), vehicle: distilled water + Tween-80): 135 % of control | T/C (dose: 1.56 mg/kg/injection, schedule: Q01DX009 (ip), vehicle: distilled water + Tween-80): 142 % of control | T/C (dose: 25.0 mg/kg/injection, schedule: Q01DX009 (ip), vehicle: distilled water + Tween-80): 129 % of control | survivor count (dose: 50.0 mg/kg/injection, schedule: Q01DX009 (ip), vehicle: distilled water + Tween-80): 4 of 6 and 6 of 6 | survivor count (dose: 100.0 mg/kg/injection, schedule: Q01DX009 (ip), vehicle: distilled water + Tween-80): 0 of 6 | survivor count (dose: 200.0 mg/kg/injection, schedule: Q01DX009 (ip), vehicle: distilled water + Tween-80): 0 of 6

COc1ccc(S(=O)(=O)N/N=C/C(=O)OCOC(=O)C(C)(C)C)cc1
T/C (dose: 10.0 mg/kg/injection, schedule: Q01DX005 (ip), vehicle: other): 130 % of control | T/C (dose: 20.0 mg/kg/injection, schedule: Q01DX005 (ip), vehicle: other): 125 % of control | T/C (dose: 20.0 mg/kg/injection, schedule: Q01DX005 (ip), vehicle: saline + Tween-80 + alcohol): 133 % of control | T/C (dose: 40.0 mg/kg/injection, schedule: Q01DX005 (ip), vehicle: other): 133 % of control | survivor count (dose: 40.0 mg/kg/injection, schedule: Q01DX005 (ip), vehicle: saline + Tween-80 + alcohol): 6 of 6 | survivor count (dose: 50.0 mg/kg/injection, schedule: Q01DX005 (ip), vehicle: saline + Tween-80 + alcohol): 3 of 6 | survivor count (dose: 100.0 mg/kg/injection, schedule: Q01DX005 (ip), vehicle: saline + Tween-80 + alcohol): 0 of 6 | survivor count (dose: 200.0 mg/kg/injection, schedule: Q01DX005 (ip), vehicle: saline + Tween-80 + alcohol): 0 of 6

CCOC(=O)CCC(=O)N(CCCNc1c2ccccc2nc2c(OC)cccc12)CCCNc1c2ccccc2nc2c(OC)cccc12
T/C (dose: 5.0 mg/kg/injection, schedule: Q01DX009 (ip), vehicle: water): 130 % of control | T/C (dose: 10.0 mg/kg/injection, schedule: Q01DX009 (ip), vehicle: water): 145 % of control [5 of 6 alive]

COC1/C=C/OC2(C)Oc3c(C)c(O)c4c(O)c(c(/C=N/N(C)C(C)C(O)c5ccccc5)c(O)c4c3C2=O)NC(=O)C(C)=C/C=C/C(C)C(O)C(C)C(O)C(C)C(OC(C)=O)C1C (centres undefined)
survivor count [2]: 3 of 6

C1CC[C@@]2([C@]34CCCC[C@H]3O4)O[C@H]2C1
survivor count (dose: 60.0 mg/kg/injection, schedule: Q01DX005 (ip), vehicle: Klucel (hydroxypropylcellulose) (HPC)): 6 of 6 | survivor count (dose: 120.0 mg/kg/injection, schedule: Q01DX005 (ip), vehicle: Klucel (hydroxypropylcellulose) (HPC)): 6 of 6

COc1cccc2c1C(=O)c1c(O)c3c(c(O)c1C2=O)C[C@@](O)(C(=O)COS(=O)(=O)c1ccc(C)cc1)C[C@@H]3OC1CC(N)C(O)C(C)O1 (some centres undefined)
T/C (dose: 0.2 mg/kg/injection, schedule: Q01DX009 (ip), vehicle: water): 137 % of control | T/C (dose: 0.39 mg/kg/injection, schedule: Q01DX009 (ip), vehicle: water): 137 and 142 % of control | T/C (dose: 0.78 mg/kg/injection, schedule: Q01DX009 (ip), vehicle: water): 141 % of control | T/C (dose: 1.56 mg/kg/injection, schedule: Q01DX009 (ip), vehicle: water): 146 % of control | T/C (dose: 3.13 mg/kg/injection, schedule: Q01DX009 (ip), vehicle: water): 139 % of control [5 of 6 alive] | T/C (dose: 6.25 mg/kg/injection, schedule: Q01DX009 (ip), vehicle: water): 130 % of control | survivor count (dose: 12.5 mg/kg/injection, schedule: Q01DX009 (ip), vehicle: water): 6 of 6 | survivor count (dose: 25.0 mg/kg/injection, schedule: Q01DX009 (ip), vehicle: water): 5 of 6 and 6 of 6

COc1cc2cc(c1Cl)N(C)C(=O)CC(OC(=O)C(C)NC(=O)C(C)C)C1(C)OC1C(C)C1CC(O)(NC(=O)O1)C(OC)/C=C/C=C(C)C2OC (centres undefined)
T/C (dose: 4.0 micrograms/kg/injection, schedule: Q01DX009 (ip), vehicle: distilled water + alcohol): 126 % of control | T/C (dose: 32.0 micrograms/kg/injection, schedule: Q01DX009 (ip), vehicle: distilled water + alcohol): 130 % of control | T/C (dose: 64.0 micrograms/kg/injection, schedule: Q01DX009 (ip), vehicle: distilled water + alcohol): 132 % of control | T/C (dose: 128.0 micrograms/kg/injection, schedule: Q01DX009 (ip), vehicle: distilled water + alcohol): 132 % of control

CC1=C(CCCCCCCCCCCCCCC(C)O)C(=O)OC1=O (centres undefined)
survivor count (dose: 25.0 mg/kg/injection, schedule: Q01DX005 (ip), vehicle: Klucel (hydroxypropylcellulose) (HPC)): 5 of 5

CCOC(=O)/C=C(/C)SC1=CC(=O)c2ccccc2C1=O
survivor count (dose: 3.13 mg/kg/injection, schedule: Q01DX009 (ip), vehicle: saline): 6 of 6 | T/C (dose: 6.25 mg/kg/injection, schedule: Q01DX009 (ip), vehicle: saline with Tween-80): 128 % of control | survivor count (dose: 25.0 mg/kg/injection, schedule: Q01DX009 (ip), vehicle: saline with Tween-80): 2 of 6 | survivor count (dose: 50.0 mg/kg/injection, schedule: Q01DX009 (ip), vehicle: saline with Tween-80): 2 of 6 | survivor count (dose: 100.0 mg/kg/injection, schedule: Q01DX009 (ip), vehicle: saline with Tween-80): 0 of 6 | survivor count [2]: 0 of 6

C[C@H](N)C(=O)N[C@@H]1[C@H]2C(=C(O)C[C@@H](O)[C@@H]2O)C(=O)O[C@]1(C)C(Cl)Cl
T/C (dose: 0.39 mg/kg/injection, schedule: Q01DX009 (ip), vehicle: Klucel (hydroxypropylcellulose) (HPC)): 126 % of control | survivor count (dose: 6.25 mg/kg/injection, schedule: Q01DX009 (ip), vehicle: Klucel (hydroxypropylcellulose) (HPC)): 1 of 6, 2 of 6, 6 of 6 | survivor count (dose: 12.5 mg/kg/injection, schedule: Q01DX009 (ip), vehicle: Klucel (hydroxypropylcellulose) (HPC)): 1 of 6 | survivor count (dose: 25.0 mg/kg/injection, schedule: Q01DX009 (ip), vehicle: Klucel (hydroxypropylcellulose) (HPC)): 0 of 6 | survivor count (dose: 50.0 mg/kg/injection, schedule: Q01DX009 (ip), vehicle: Klucel (hydroxypropylcellulose) (HPC)): 0 of 6 | survivor count (dose: 100.0 mg/kg/injection, schedule: Q01DX009 (ip), vehicle: Klucel (hydroxypropylcellulose) (HPC)): 0 of 6
